According to PubChem BioAssay (EPA / NIEHS):
The shares of active, inactive and inconclusive entries below differ from those in the screen. Potencies beside an inconclusive call are fits to weak or partial responses and may not hold up. The source made the active and inactive calls. Rule for the calls: active = hit-call score of the fitted dose curve at least 0.9, where 1 is the maximum; inconclusive = response in the unintended direction; inactive = score below 0.9.

Chains of the proteins cited; added tags and fusions are not shown. Lines headed by an entry give the natural chain unless they say otherwise; changes in a name come on top.
UniProt Q9UNQ0: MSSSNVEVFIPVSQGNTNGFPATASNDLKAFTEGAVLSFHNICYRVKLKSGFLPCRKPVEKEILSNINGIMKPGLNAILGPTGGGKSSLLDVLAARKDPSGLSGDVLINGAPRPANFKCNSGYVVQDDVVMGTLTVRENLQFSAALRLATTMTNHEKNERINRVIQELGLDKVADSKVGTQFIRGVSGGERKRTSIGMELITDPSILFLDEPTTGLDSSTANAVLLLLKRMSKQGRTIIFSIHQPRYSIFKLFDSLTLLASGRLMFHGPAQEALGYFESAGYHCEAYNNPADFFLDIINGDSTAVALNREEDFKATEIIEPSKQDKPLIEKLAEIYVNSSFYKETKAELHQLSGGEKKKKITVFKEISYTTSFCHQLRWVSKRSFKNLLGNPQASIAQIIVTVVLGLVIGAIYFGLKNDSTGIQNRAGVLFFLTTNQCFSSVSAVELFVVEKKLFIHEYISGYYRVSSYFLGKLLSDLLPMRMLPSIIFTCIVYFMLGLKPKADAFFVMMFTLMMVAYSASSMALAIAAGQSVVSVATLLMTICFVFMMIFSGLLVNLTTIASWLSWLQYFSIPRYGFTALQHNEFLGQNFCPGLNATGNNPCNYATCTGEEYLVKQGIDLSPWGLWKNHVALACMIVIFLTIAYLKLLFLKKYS

Tests used:
[1] = Tanguay_ZF_120hpf_AXIS_legacy: (Legacy) Oregon State University Tanguay Lab 120 Hour Post-fertilization zebrafish Assay for Body Axis Malformation (AID 2283635);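 for AC50: potency for an increased fraction of larvae scored with body axis malformation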
How it was run: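 Binary scoring of axis defects at 120 hpf under brightfield, fitted positive versus DMSO. Tropical 5D embryos, chorion removed by pronase at 4 hpf, were singly exposed in sealed, dark plates at 28C from 6 hpf; DMSO 0.64% final.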

[2] = Tanguay_ZF_120hpf_JAW_legacy: (Legacy) Oregon State University Tanguay Lab 120 Hour Post-fertilization zebrafish Assay for Jaw Malformation (AID 2283638);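 for AC50: active means more embryos with jaw malformation than DMSO controls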
How it was run: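 Binary jaw-malformation call at 120 hpf by brightfield microscopy. Embryos (Tropical 5D strain, chorion removed at 4 hpf) were dosed statically at 6 hpf, one per well, at 28C with 0.64% DMSO. Embryos that died were not scored.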

[3] = Tanguay_ZF_120hpf_PE_legacy: (Legacy) Oregon State University Tanguay Lab 120 Hour Post-fertilization zebrafish Assay for Pericardial Edema (AID 2283640);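 note: potency for increased incidence of pericardial edema versus DMSO baseline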
How it was run: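 Scoring was binary, by brightfield microscopy at 120 hpf, and skipped where mortality occurred. Wild-type embryos were kept under sealed, foil-covered static exposure at 28C in 0.64% (vol/vol) DMSO.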

[4] = Tanguay_ZF_120hpf_BRAI_legacy: (Legacy) Oregon State University Tanguay Lab 120 Hour Post-fertilization zebrafish Assay for Brain Malformation (AID 2283641)
How it was run: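 Binary brightfield scoring of brain malformation at 120 hpf in Tropical 5D larvae held under static exposure at 28C (0.64% v/v DMSO), non-mortality endpoints skipped if dead. Positive control: 5uM trimethyltin chloride; fit versus DMSO.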

[5] = Tanguay_ZF_120hpf_SWIM_legacy: (Legacy) Oregon State University Tanguay Lab 120 Hour Post-fertilization zebrafish Assay for Swim Bladder Malformation (AID 2283654);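 note: swim bladder malformation in each larva scored yes or no under brightfield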
How it was run: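 Scoring is binary for swim bladder defects at 120 hpf, by brightfield inspection of zebrafish larvae. Embryos were exposed singly from 6 hpf after pronase dechorionation, at 28C with 0.64% DMSO; mortality excluded scoring.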

[6] = Tanguay_ZF_120hpf_PIG_legacy: (Legacy) Oregon State University Tanguay Lab 120 Hour Post-fertilization zebrafish Assay for Pigmentation Malformation (AID 2283650)
How it was run: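 Pigment malformation recorded as a binary call at 120 hpf in zebrafish (Tropical 5D) exposed singly from 6 hpf after pronase dechorionation. Static, sealed, 28C exposure, 0.64% DMSO; mortality excludes scoring; positive-direction fit against DMSO.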

[7] = read-out: ABC Transporter (ABCB1), ABCB1 (gene 5243); assay: CLD_ABCB1_6hr: CellzDirect (CLD) Gene Expression Assay for ABC Transporter (ABCB1) at 6 hours (AID 2283659);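 for outcome: hits raise ABCB1 transcript above the DMSO vehicle baseline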
How it was run: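 ABCB1 transcript measured by quantitative nuclease protection assay, chemiluminescent read-out, 6 h after dosing human hepatocyte cultures (0.2% DMSO vehicle, daily redosing). Activity fitted as increase over DMSO baseline; cytotoxicity flagged by phase-contrast morphology.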

[8] = read-out: Broad substrate specificity ATP-binding cassette transporter ABCG2 (Homo sapiens) (UniProt Q9UNQ0); assay: CLD_ABCG2_6hr: CellzDirect (CLD) Gene Expression Assay for ABC Transporter (ABCG2) at 6 hours (AID 2283660)
How it was run: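 ABCG2 mRNA induction measured by qNPA chemiluminescence in human primary hepatocyte cultures, 6 h post-dose. Chemicals tested at several concentrations against a 0.2% DMSO vehicle; positive-direction fit relative to DMSO.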

[9] = Tanguay_ZF_120hpf_EYE_legacy: (Legacy) Oregon State University Tanguay Lab 120 Hour Post-fertilization zebrafish Assay for Eye Malformation (AID 2283636);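 note: binary presence or absence of eye malformation scored by brightfield in 120 hpf larvae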
How it was run: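 Binary brightfield scoring of eye defects at 120 hpf after static exposure from 6 hpf of single pronase-dechorionated wild-type embryos (28C, 0.64% DMSO). Non-mortality endpoints omitted where embryos died; fit vs DMSO.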

[10] = Tanguay_ZF_120hpf_NC_legacy: (Legacy) Oregon State University Tanguay Lab 120 Hour Post-fertilization zebrafish Assay for Notochord and Tail Malformation (AID 2283656)
How it was run: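 Binary notochord-distortion calls, made by brightfield inspection, form the read-out; activity is fitted in the positive direction against DMSO. Exposure ran statically from 6 to 120 hpf at 28C with 0.64% DMSO.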

[11] = Tanguay_ZF_120hpf_PFIN_legacy: (Legacy) Oregon State University Tanguay Lab 120 Hour Post-fertilization zebrafish Assay for Pectoral Fin Malformation (AID 2283648);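 note: each larva judged yes or no for fin defect by brightfield with dead larvae skipped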
How it was run: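 Pectoral fin malformation was recorded as a binary endpoint at 120 hpf in wild-type Tropical 5D larvae, which had been dechorionated and exposed statically from 6 hpf at 28C in 0.64% DMSO. Dead embryos were excluded.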

[12] = Tanguay_ZF_120hpf_CIRC_legacy: (Legacy) Oregon State University Tanguay Lab 120 Hour Post-fertilization zebrafish Assay for Circulatory Malformation (AID 2283651)
How it was run: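 Static exposure, 6–120 hpf, 28C, sealed and dark; one dechorionated 5D embryo/well; DMSO 0.64% v/v final. Binary circulation endpoint by brightfield; dead embryos not scored.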

[13] = Tanguay_ZF_120hpf_TRUN_legacy: (Legacy) Oregon State University Tanguay Lab 120 Hour Post-fertilization zebrafish Assay for Truncated Body (AID 2283655)
How it was run: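 Binary presence/absence of truncated body is recorded at 120 hpf by brightfield, with non-mortality endpoints skipped after death. Exposure is static from 6 hpf in sealed dark plates at 28C, using dechorionated wild-type zebrafish, 0.64% DMSO.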

[14] = Tanguay_ZF_120hpf_OTIC_legacy: (Legacy) Oregon State University Tanguay Lab 120 Hour Post-fertilization zebrafish Assay for Otic Vesicle Malformation (AID 2283639)
How it was run: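 Brightfield scoring at 120 hpf, binary present/absent; DMSO negative control, 5uM trimethyltin chloride positive control. Static exposure at 28C, final DMSO 0.64% (vol/vol). Dead embryos not scored for malformation.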

[15] = read-out: xenobiotic metabolism (CYP1A1), CYP1A1 (gene 1543); assay: CLD_CYP1A1_6hr: CellzDirect (CLD) Gene Expression Assay for xenobiotic metabolism (CYP1A1) at 6 hours (AID 2283661);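 for AC50: potency for transcript induction above DMSO vehicle baseline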
How it was run: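 Read-out 6 h post-dose: qNPA chemiluminescent quantitation of transcript induction against 0.2% DMSO. Cells were cultured primary human hepatocytes from two separate donor preparations; phase-contrast morphology annotated apparent cytotoxicity.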

[16] = Tanguay_ZF_120hpf_CFIN_legacy: (Legacy) Oregon State University Tanguay Lab 120 Hour Post-fertilization zebrafish Assay for Caudal Fin Malformation (AID 2283649)
How it was run: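 Binary brightfield scoring of caudal fin defects at 120 hpf after static, light-shielded exposure at 28C from 6 hpf. Tropical 5D embryos, chorion removed with pronase at 4 hpf, final DMSO 0.64%.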

[17] = Tanguay_ZF_120hpf_SNOU_legacy: (Legacy) Oregon State University Tanguay Lab 120 Hour Post-fertilization zebrafish Assay for Snout Malformation (AID 2283637)
How it was run: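 Binary snout-malformation call at 120 hpf in wild-type 5D embryos, chorion removed by pronase, under static exposure from 6 hpf at 28C (0.64% DMSO). Embryos dying by 24 or 120 hpf excluded.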

[18] = Tanguay_ZF_120hpf_SOMI_legacy: (Legacy) Oregon State University Tanguay Lab 120 Hour Post-fertilization zebrafish Assay for Somite Malformation (AID 2283647)
How it was run: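 Binary somite-defect scoring at 120 hpf, omitted for embryos that died, in wild-type (Tropical 5D) zebrafish with chorion removed by pronase at 4 hpf; static exposure began 6 hpf, single embryos per well, 28C, 0.64% DMSO; fitted positive versus DMSO.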

With CC1(c2ccc(Oc3ccccc3)cc2)OC(=O)N(Nc2ccccc2)C1=O (configuration not stated) the outcome [1] was “inactive”, the outcome [2] was “inactive” and the AC50 [3] was inconclusive: 189 µM. For the same molecule, the outcome [4] was “inactive” and the AC50 [5] was inconclusive: 79.8 µM.

In the case of Cc1[nH]c(=O)n(C(C)(C)C)c(=O)c1Cl, the AC50 [1] is reported as inconclusive: 161 µM, the outcome [6] is reported as “inactive” and the outcome [5] is reported as “inactive”. The outcome [7] was “inactive” and the AC50 [8] was inconclusive: 20 µM.

With CNC(=O)Oc1ccccc1OC(C)C the AC50 [9] was inconclusive: 2.4 µM.

In the case of Cn1c(-c2ccccc2)cc(-c2ccccc2)[n+]1C, the outcome [1] is reported as “inactive”, the outcome [10] is reported as “inactive” and the AC50 [8] is reported as inconclusive: 0.258 µM.

With CCCCCCCCCc1ccc(O)cc1 the AC50 [1] was inconclusive: 202 µM, the AC50 [4] was inconclusive: 2.86 µM and the AC50 [11] was inconclusive: 202 µM. The AC50 [12] was inconclusive: 3.98 µM and the outcome [13] was “inactive”.

In the case of CC(C)N(C(=O)COc1nnc(C(F)(F)F)s1)c1ccc(F)cc1, the AC50 [1] is reported as inconclusive: 3.54 µM, the AC50 [14] is reported as inconclusive: 162 µM and the AC50 [4] is reported as inconclusive: 202 µM. The outcome [5] was “inactive”, the AC50 [10] was inconclusive: 39 µM and the outcome [15] was “inactive”.

With CCOP(=S)(OCC)SCSC(C)(C)C the AC50 [1] was inconclusive: 99.3 µM, the AC50 [2] was inconclusive: 202 µM and the outcome [14] was “inactive”. The AC50 [16] was inconclusive: 163 µM, the AC50 [5] was inconclusive: 1.35 µM and the AC50 [13] was inconclusive: 158 µM.

With O=C(Nc1ccccc1)c1ccccc1I the AC50 [1] was inconclusive: 4.35 µM, the AC50 [17] was active: 12.1 µM and the AC50 [14] was active: 48 µM. For the same molecule, the AC50 [11] was active: 47.3 µM, the AC50 [16] was active: 45 µM and the AC50 [12] was active: 76.6 µM.

With COc1ccc(C(=CC(=O)N2CCOCC2)c2ccc(Cl)cc2)cc1OC the AC50 [1] was active: 9.11 µM, the AC50 [17] was active: 35.4 µM and the AC50 [14] was active: 42.6 µM. The AC50 [4] was active: 40.9 µM, the AC50 [11] was active: 45.5 µM and the AC50 [16] was active: 37.3 µM. The AC50 [5] was active: 63.3 µM, the AC50 [13] was active: 51.4 µM and the AC50 [10] was inconclusive: 109 µM. The outcome [7] was “inactive” and the AC50 [15] was inconclusive: 0.000437 µM.

With CC#Cc1cc(C)nc(Nc2ccccc2)n1 the AC50 [1] was inconclusive: 85.3 µM, the outcome [9] was “inactive” and the AC50 [14] was inconclusive: 6.19 µM. The AC50 [3] was inconclusive: 178 µM, the AC50 [13] was inconclusive: 3.19 µM and the AC50 [10] was inconclusive: 13.2 µM.

In the case of Cc1cc(C)nc(Nc2ccccc2)n1, the AC50 [1] is reported as inconclusive: 121 µM, the AC50 [7] is reported as inconclusive: 23.5 µM and the AC50 [8] is reported as inconclusive: 20 µM.

For NC(=O)O, the AC50 [1] was inconclusive: 97.5 µM, the outcome [2] was “inactive” and the AC50 [14] was inconclusive: 118 µM. The AC50 [11] was inconclusive: 139 µM and the AC50 [6] was inconclusive: 7.68 µM.

In the case of Cc1ccc([N+](=O)[O-])cc1, the AC50 [1] is reported as inconclusive: 95.6 µM and the outcome [11] is reported as “inactive”.

In the case of CC(Cl)(Cl)C(=O)O, the outcome [1] is reported as “inactive”, the outcome [9] is reported as “inactive” and the outcome [10] is reported as “inactive”.

With Clc1ccc(C(c2ccccc2Cl)C(Cl)(Cl)Cl)cc1 (configuration not stated) the outcome [1] was “inactive”, the AC50 [9] was inconclusive: 67.2 µM and the AC50 [2] was inconclusive: 202 µM. For the same molecule, the outcome [6] was “inactive” and the outcome [5] was “inactive”.

For c1ccc2c(c1)-c1cccc3cccc-2c13, the AC50 [9] was inconclusive: 202 µM, the AC50 [17] was inconclusive: 151 µM and the AC50 [2] was inconclusive: 11.4 µM. The AC50 [14] was inconclusive: 21.2 µM, the AC50 [3] was inconclusive: 1.21 µM and the outcome [4] was “inactive”. The AC50 [18] was inconclusive: 201 µM and the AC50 [5] was inconclusive: 107 µM.

With CCC(C)(C)c1ccc(O)cc1 the AC50 [1] was active: 19 µM, the AC50 [9] was active: 22.3 µM and the AC50 [14] was active: 48.4 µM. For the same molecule, the AC50 [3] was active: 44.5 µM, the AC50 [18] was active: 36.6 µM and the AC50 [11] was active: 22.2 µM. For the same molecule, the AC50 [16] was active: 48.8 µM, the AC50 [6] was active: 47.4 µM and the outcome [12] was “inactive”. For the same molecule, the AC50 [5] was active: 47.2 µM, the AC50 [13] was active: 31.6 µM and the AC50 [10] was active: 47.9 µM.

For CC(C)(c1ccccc1)c1ccc(O)c(C(C)(C)c2ccccc2)c1, the AC50 [1] was inconclusive: 84.3 µM and the outcome [17] was “inactive”.

For N#CC(CCc1ccc(Cl)cc1)(Cn1cncn1)c1ccccc1 (configuration not stated), the outcome [1] was “inactive”, the AC50 [9] was inconclusive: 32.3 µM and the AC50 [13] was inconclusive: 1.57 µM.

For O=C(O)CCCOc1ccc(Cl)cc1Cl, the AC50 [1] was active: 48.7 µM, the AC50 [14] was inconclusive: 16.9 µM and the AC50 [3] was active: 24.2 µM. For the same molecule, the AC50 [11] was inconclusive: 29.8 µM and the outcome [15] was “inactive”.

For CC(C)COC(=O)c1ccccc1C(=O)OCC(C)C, the outcome [1] was “inactive”, the AC50 [2] was active: 29.7 µM and the AC50 [11] was active: 45.5 µM.

With C[C@]12CCC(=O)C[C@@H]1CC[C@@H]1[C@@H]2CC[C@]2(C)[C@@H](O)CC[C@@H]12 the outcome [1] was “inactive”, the outcome [9] was “inactive” and the AC50 [5] was inconclusive: 25.5 µM.

With CCC(C)(CC)c1cc(NC(=O)c2c(OC)cccc2OC)on1 the outcome [1] was “inactive”, the AC50 [6] was inconclusive: 75.3 µM and the AC50 [12] was inconclusive: 103 µM. For the same molecule, the outcome [7] was “inactive”.
